{"source": "paper PMC7608686", "about": "“The interaction of DNA repair factors ASCC2 and ASCC3 is affected by somatic cancer mutations” (Nature Communications, 2020)", "binders": {"B1": {"name": "ASCC2, endogenous in HEK293 cells (protein, UniProt Q9H1I8 1-757)", "chain": "MPALPLDQLQITHKDPKTGKLRTSPALHPEQKADRYFVLYKPPPKDNIPALVEEYLERATFVANDLDWLLALPHDKFWCQVIFDETLQKCLDSYLRYVPRKFDEGVASAPEVVDMQKRLHRSVFLTFLRMSTHKESKDHFISPSAFGEILYNNFLFDIPKILDLCVLFGKGNSPLLQKMIGNIFTQQPSYYSDLDETLPTILQVFSNILQHCGLQGDGANTTPQKLEERGRLTPSDMPLLELKDIVLYLCDTCTTLWAFLDIFPLACQTFQKHDFCYRLASFYEAAIPEMESAIKKRRLEDSKLLGDLWQRLSHSRKKLMEIFHIILNQICLLPILESSCDNIQGFIEEFLQIFSSLLQEKRFLRDYDALFPVAEDISLLQQASSVLDETRTAYILQAVESAWEGVDRRKATDAKDPSVIEEPNGEPNGVTVTAEAVSQASSHPENSEEEECMGAAAAVGPAMCGVELDSLISQVKDLLPDLGEGFILACLEYYHYDPEQVINNILEERLAPTLSQLDRNLDREMKPDPTPLLTSRHNVFQNDEFDVFSRDSVDLSRVHKGKSTRKEENTRSLLNDKRAVAAQRQRYEQYSVVVEEVPLQPGESLPYHSVYYEDEYDDTYDGNQVGANDADSDDELISRRPFTIPQVLRTKVPREGQEEDDDDEEDDADEEAPKPDHFVQDPAVLREKAEARRMAFLAKKGYRHDSSTAVAGSPRGHGQSRETTQERRKKEANKATRANHNRRTMADRKRSKGMIPS"}, "B2": {"name": "Full-length ASCC2 (ASCC2^FL) (protein, UniProt Q9H1I8 1-757)", "chain": "B1 chain"}, "B3": {"name": "ASCC2^1-434 (domain or fragment, human, UniProt Q9H1I8 1-434, looked up)", "chain": "MPALPLDQLQITHKDPKTGKLRTSPALHPEQKADRYFVLYKPPPKDNIPALVEEYLERATFVANDLDWLLALPHDKFWCQVIFDETLQKCLDSYLRYVPRKFDEGVASAPEVVDMQKRLHRSVFLTFLRMSTHKESKDHFISPSAFGEILYNNFLFDIPKILDLCVLFGKGNSPLLQKMIGNIFTQQPSYYSDLDETLPTILQVFSNILQHCGLQGDGANTTPQKLEERGRLTPSDMPLLELKDIVLYLCDTCTTLWAFLDIFPLACQTFQKHDFCYRLASFYEAAIPEMESAIKKRRLEDSKLLGDLWQRLSHSRKKLMEIFHIILNQICLLPILESSCDNIQGFIEEFLQIFSSLLQEKRFLRDYDALFPVAEDISLLQQASSVLDETRTAYILQAVESAWEGVDRRKATDAKDPSVIEEPNGEPNGVTVTA", "notes": "source: E. coli BL21 (DE3), purified (Ni-NTA, SEC); not shown: His6, N-terminal, cleaved"}}, "key": {"[1]": {"target": "C-terminally flag-tagged full-length ASCC3 (ASCC3^FL-Flag) (human) (UniProt Q8N3C0)", "assay": "co-IP; Flag-tagged ASCC3 or fragments captured from HEK293 Flp-In T-REx lysate on anti-FlagM2 magnetic beads, eluted with 3xFlag peptide; ASCC2 by western blot, quantified relative to ASCC3^FL"}, "[2]": {"target": "ASCC3 helicase region (ASCC3^HR; residues 401-2202) (human) (UniProt Q8N3C0)", "assay": "SEC; analytical SEC of mixtures of ASCC2^FL with ASCC3^NTR or ASCC3^HR; fractions analysed by SDS-PAGE; both purified"}, "ASCC3^42-197 (human) [3]": {"target": "ASCC3^42-197 (human) (UniProt Q8N3C0)", "assay": "SEC; 1 µmol ASCC2^1-434 mixed with 2 µmol ASCC3 fragment in 20 mM HEPES-NaOH, pH 7.5, 100 mM NaCl, 1 mM DTT; 30 min on ice; Superdex 200 3.2/300; fractions by SDS-PAGE; both purified"}, "ASCC3^42-197 (human) [4]": {"target": "ASCC3^42-197 (human) (UniProt Q8N3C0)", "assay": "condition: 10 µM ASCC3 variant in the cell, 100 µM ASCC2 variant in the syringe; ITC; iTC200; ASCC3 variant (10 µM) in the sample cell, ASCC2 variant (100 µM) in the syringe; 20 mM HEPES-NaOH, pH 7.5, 100 mM NaCl; 25 °C; stoichiometry fixed to 1; both purified"}, "[5]": {"target": "T1, ASCC3^1-22 peptide R11C (human) (UniProt Q8N3C0)", "T1 sequence (peptide, C-terminal amination)": "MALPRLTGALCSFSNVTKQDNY", "assay": "condition: 10–15 µM peptide in the cell, 200 µM or 400 µM ASCC2^1–434 in the syringe; ITC; iTC200; ASCC3^1-22 peptide (10-15 µM) in the sample cell, ASCC2^1-434 (200 µM or 400 µM) in the syringe; 20 mM HEPES-NaOH, pH 7.5, 100 mM NaCl; 25 °C; stoichiometry fixed to 1; both purified"}, "[6]": {"target": "T2, ASCC3^1-22 peptide R11H (human) (UniProt Q8N3C0)", "T2 sequence (peptide, C-terminal amination)": "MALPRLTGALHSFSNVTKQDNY", "assay": "condition: 10–15 µM peptide in the cell, 200 µM or 400 µM ASCC2^1–434 in the syringe; ITC; iTC200; ASCC3^1-22 peptide (10-15 µM) in the sample cell, ASCC2^1-434 (200 µM or 400 µM) in the syringe; 20 mM HEPES-NaOH, pH 7.5, 100 mM NaCl; 25 °C; stoichiometry fixed to 1; both purified"}}, "note": "Results are given in words; binding and its absence hold for the method and conditions named. For part of these data: In cells and extracts the contact can be indirect. Some binding calls cover weakened binding; strength is not graded here.", "data": [{"binder": "B1", "values": [{"measurement": "binding", "setting": "[1]", "result": "binds"}]}, {"binder": "B2", "values": [{"measurement": "binding", "setting": "[2]", "result": "no binding"}]}, {"binder": "B3", "values": [{"measurement": "binding", "setting": "ASCC3^42-197 (human) [3]", "result": "no binding"}, {"measurement": "binding", "setting": "ASCC3^42-197 (human) [4]", "result": "no binding"}, {"measurement": "binding", "setting": "[5]", "result": "no binding"}, {"measurement": "binding", "setting": "[6]", "result": "no binding"}]}]}
